PubChem BioAssay AID743454 | Peter MacCallum Cancer Centre, 2014
Screen: 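Knock-downs lowering viability or raising caspase 3/7 activity in vorinostat-treated resistant cells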 (primary screen). Cells: human HCT116-VR colon cancer cells, selected for vorinostat resistance. Reagents: siRNA pool against human genes, 40 nM siRNA pool. Duration: vorinostat for 24 h, read-out about 72 h after transfection. Conditions: vorinostat at 2.5 µM final. Measurement: 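Cell viability by CellTiter-Fluor and caspase 3/7 activity by luminescence, each scaled to mock wells per plate, duplicates averaged, then robust z-scored over all plates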. Reading the numbers: viability robust z-score: higher = more viable cells than screen typical; caspase robust z-score: higher = more caspase 3/7 activity than screen typical. Rule for the call: 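Hits are knock-downs in viability class RV1/RV2 or caspase class CA1/CA2, excluding ones that killed cells in the no-drug cell-count arm; hits then retested with single siRNAs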.
Here is a random part of about 18,000 reagents tested. 450 of all reagents (2.5%) count as active. 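Single biological run; no consistent viability z cut-off exists, so the class columns, not z-scores, define the calls.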

The first 4 records, ahead of the listing:
gene symbol | PubChem SID | viability hit class | caspase hit class | viability robust z-score | caspase robust z-score | call
PARG | SID135622132 | no change | no change | 0.24 | -1 | inactive
HSPA14 | SID135624117 | no change | no change | 0.29 | 1.29 | inactive
LENG9 | SID134326896 | no change | no change | 0.06 | 2.07 | inactive
KMT2D | SID152148880 | no change | no change | -3.83 | -0.32 | inactive

Results, from the start:
gene symbol | PubChem SID | viability hit class | caspase hit class | viability robust z-score | caspase robust z-score | call
PARG | SID135622132 | no change | no change | 0.24 | -1 | inactive
HSPA14 | SID135624117 | no change | no change | 0.29 | 1.29 | inactive
LENG9 | SID134326896 | no change | no change | 0.06 | 2.07 | inactive
KMT2D | SID152148880 | no change | no change | -3.83 | -0.32 | inactive
ANKRD45 | SID134326832 | no change | no change | 0.84 | 0.26 | inactive
EVA1C | SID134320744 | no change | no change | -1.48 | 2.88 | inactive
PRPF31 | SID135624004 | no change | no change | -1.64 | 1.27 | inactive
RPS6KB1 | SID152147142 | no change | no change | -0.53 | -1.46 | inactive
RBM28 | SID134324752 | no change | no change | -0.44 | 0.58 | inactive
ALX3 | SID152152720 | no change | no change | -0.56 | 0.44 | inactive
SCYL2 | SID56479005 | no change | no change | -0.15 | -0.32 | inactive
EZH1 | SID135620793 | no change | no change | 1.1 | 0.14 | inactive
TAS2R4 | SID134317339 | no change | no change | 0.57 | -0.54 | inactive
FAM170A | SID152151431 | no change | no change | -0.88 | 2.97 | inactive
HSPA1L | SID135622258 | no change | no change | 0.72 | 0.55 | inactive
DDX4 | SID152150986 | no change | no change | 0.66 | -0.08 | inactive
S100A13 | SID152150700 | no change | no change | -0.44 | -0.66 | inactive
GARIN2 | SID152156107 | no change | no change | 0.31 | 0.48 | inactive
CLEC10A | SID152150774 | no change | no change | 0.82 | -0.38 | inactive
SUPT20H | SID152154690 | no change | no change | -0.55 | 0.58 | inactive
XYLT2 | SID152153697 | no change | no change | 0.7 | -0.68 | inactive
KDM1A | SID152149936 | no change | no change | -0.07 | -0.48 | inactive
SAMD9L | SID135624802 | no change | no change | -0.71 | -0.16 | inactive
CWC25 | SID134320107 | no change | no change | -0.88 | -1.32 | inactive
S100A16 | SID134319276 | no change | no change | 0.48 | -0.9 | inactive
IQCH | SID135621434 | no change | no change | 0.6 | -0.64 | inactive
ENTPD2 | SID134315227 | no change | no change | -0.42 | 0.41 | inactive
CLPSL1 | SID152155450 | no change | no change | 0.38 | 0.53 | inactive
IQGAP1 | SID152151051 | no change | no change | 0.45 | 0.17 | inactive
IFNLR1 | SID134312915 | no change | no change | -0.98 | 0.88 | inactive
FGF16 | SID152153565 | no change | no change | 1.45 | 0.3 | inactive
GPR32 | SID134311007 | no change | no change | -0.24 | 0.84 | inactive
DOCK9 | SID134318227 | no change | no change | 0.35 | -0.6 | inactive
TIGIT | SID134322341 | no change | no change | 1.21 | -0.31 | inactive
HCG9 | SID134316398 | no change | no change | 0.22 | 0.18 | inactive
DUSP13B | SID152148104 | no change | no change | 0.54 | 0.42 | inactive
IRAK3 | SID56478864 | no change | no change | -0.92 | 1.98 | inactive
LYPD3 | SID152154614 | no change | no change | 0.62 | -0.06 | inactive
RAB3B | SID134313678 | no change | no change | -0.66 | 0.18 | inactive
DDX49 | SID134321874 | no change | no change | -1.56 | 1.49 | inactive
ANKZF1 | SID135624131 | no change | no change | -1.9 | 0.17 | inactive
SP100 | SID152155236 | no change | no change | 0.29 | -0.89 | inactive
HIKESHI | SID135623225 | no change | no change | -0.74 | -0.44 | inactive
CDK1 | SID56478584 | no change | no change | -1.12 | -1 | inactive
HOXC6 | SID135622212 | no change | no change | 0.72 | 0.27 | inactive
PTN | SID135623594 | no change | no change | -0.48 | -0.38 | inactive
HDIP1 | SID152149796 | no change | no change | 0.76 | 1.5 | inactive
WWC1 | SID134318241 | no change | no change | 0.42 | -0.09 | inactive
OR2H1 | SID134322045 | no change | no change | 0.54 | -0.32 | inactive
CAMK1 | SID56478929 | RV2 (reduced viability) | no change | -4.25 | 4.25 | active
MUC17 | SID152156207 | no change | no change | 0.16 | -0.62 | inactive
IDH1 | SID134313174 | no change | no change | 0.4 | 2.74 | inactive
DNAJB7 | SID134313763 | no change | no change | -1.31 | 0.36 | inactive
AOC1 | SID152149833 | no change | CA1 (caspase activation) | -1.03 | 6.74 | active
COX14 | SID134319105 | no change | no change | -0.35 | -0.79 | inactive
PIANP | SID134320368 | no change | no change | 0 | 0.98 | inactive
ARCN1 | SID135622447 | no change | no change | -2.76 | 2.35 | inactive
PF4 | SID152147954 | no change | no change | -1.42 | -0.62 | inactive
GRHPR | SID134313136 | no change | no change | -2.13 | -1.29 | inactive
CSNK1G1 | SID152156369 | no change | no change | -2.1 | 1.02 | inactive
RASAL2 | SID135621769 | no change | CA2 (caspase activation) | -1.45 | 5.75 | active
DECR1 | SID135621813 | no change | no change | -1.3 | -1.02 | inactive
NPC1 | SID152151171 | no change | no change | 1.45 | -0.6 | inactive
NPS | SID135625611 | no change | no change | 0.31 | 0.58 | inactive
ITFG1 | SID152147893 | no change | no change | 0.38 | 0.12 | inactive
ZDHHC23 | SID135623518 | no change | no change | 1.3 | 0.76 | inactive
PSCA | SID152156085 | no change | no change | -2.23 | -1.36 | inactive
CFAP54 | SID135624657 | no change | no change | 1.64 | -0.32 | inactive
TAFA3 | SID152150566 | no change | no change | -0.59 | -0.25 | inactive
TMEM132A | SID152155554 | no change | no change | -1.26 | 0.38 | inactive
CLDN16 | SID152154492 | no change | no change | -0.15 | -0.64 | inactive
IQSEC1 | SID152154675 | RV2 (reduced viability) | no change | -3.28 | 2 | active
IFI6 | SID152149872 | no change | no change | 0.96 | 2.16 | inactive
